Measurements: article PMC12682277

Assays:
[1] = test system: RAG1 (endogenous, U87 extract) + RAG2 (endogenous, U87 extract); assay: pull-down; conditions: U87 cell-free extract, immunoblot, pull-down: 1X PBS, 10 mM NaCl, protease inhibitors, 0.5 mM PMSF, 2 h 4 C, protein in an extract
[2] = test system: RAG1 (endogenous, Nalm6 extract) + RAG2 (endogenous, Nalm6 extract); assay: pull-down; conditions: Nalm6 cell-free extract, immunoblot; pull-down: 1X PBS, 10 mM NaCl, protease inhibitors, 0.5 mM PMSF, 2 h 4 C; protein in an extract; label: 5'-biotin on AKN1

Sequence | binding result ([1]; label: 5'-biotin on AKN1) | binding result [2] | binding result ([1]; label: 5'-biotin on MS20)
GATCAGCTGATAGCTACCACAGTGCTACAGACTGGAACAAAAACCCTGCT / TAGCAGGGTTTTTGTTCCAGTCTGTAGCACTGTGGTAGCTATCAGCTGAT [biotinylated 12RSS (AKN1/AKN2)] | binds | binds | 
TTTTTTTTTTGACCATTGGCGATCTCAGCGTACGGACGACTTCGGATGACTTTTTTTTTT / GTCATCCGAAGTCGTCCGTACGCTGAGATCGCCAATGGTC [biotinylated MS20/MS21 control] |  |  | no binding

The exact form of at least one protein or probe is not confirmed. Where cells or extracts were used, other partners may take part. For part of these data: A negative result means that nothing was seen under these conditions. For part of these data: At least one verdict was read from the data and is not stated in words by the source.
